According to patent EP4417619A1:
No constants are given. Whether binding was seen depends on the method and setting. In cells and extracts the contact can be indirect. Some binding calls cover weakened binding; strength is not graded here. Sequences can lack the tags named with a protein.

The chains behind the UniProt entries cited, without tags or fusion partners. Residues count along the entry.
UniProt P46531, residues 19-526: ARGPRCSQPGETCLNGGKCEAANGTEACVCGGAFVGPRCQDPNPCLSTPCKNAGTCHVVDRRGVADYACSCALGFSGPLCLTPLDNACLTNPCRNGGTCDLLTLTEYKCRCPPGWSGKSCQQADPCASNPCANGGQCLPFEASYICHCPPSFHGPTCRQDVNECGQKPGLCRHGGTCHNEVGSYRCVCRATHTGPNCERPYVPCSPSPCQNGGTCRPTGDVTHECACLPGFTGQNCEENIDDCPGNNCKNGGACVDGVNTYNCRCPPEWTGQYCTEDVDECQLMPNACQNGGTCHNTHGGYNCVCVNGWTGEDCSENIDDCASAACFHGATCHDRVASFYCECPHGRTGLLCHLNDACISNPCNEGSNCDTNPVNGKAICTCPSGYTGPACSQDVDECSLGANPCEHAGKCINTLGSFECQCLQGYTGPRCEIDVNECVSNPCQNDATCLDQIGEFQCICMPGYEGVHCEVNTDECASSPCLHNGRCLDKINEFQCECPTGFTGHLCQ
UniProt Q99466, residues 24-549: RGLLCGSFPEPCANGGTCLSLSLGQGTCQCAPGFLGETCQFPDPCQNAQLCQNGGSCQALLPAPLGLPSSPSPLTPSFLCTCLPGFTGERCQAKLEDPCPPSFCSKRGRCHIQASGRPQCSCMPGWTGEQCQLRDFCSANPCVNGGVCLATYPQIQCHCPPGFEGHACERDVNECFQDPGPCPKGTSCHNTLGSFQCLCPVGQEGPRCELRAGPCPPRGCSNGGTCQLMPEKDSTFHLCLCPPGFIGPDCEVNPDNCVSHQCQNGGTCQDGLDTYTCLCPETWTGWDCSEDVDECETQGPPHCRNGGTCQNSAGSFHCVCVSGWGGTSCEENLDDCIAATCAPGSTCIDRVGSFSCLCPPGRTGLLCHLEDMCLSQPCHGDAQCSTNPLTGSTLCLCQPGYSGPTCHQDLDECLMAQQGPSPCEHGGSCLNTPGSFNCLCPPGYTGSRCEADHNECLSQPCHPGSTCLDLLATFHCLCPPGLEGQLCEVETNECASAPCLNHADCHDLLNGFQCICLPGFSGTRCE

B1: fusion hDII4-hFc protein with the amino acid sequence of SEQ ID NO: 2 (DSL domain and EGF(1-5) domains of human DII4 fused with the Fc region of human IgG4) (Fc fusion)
chain: YRVICSDNYYGDNCSRLCKKRNDHFGHYVCQPDGNLSCLPGWTGEYCQQPICLSGCHEQNGYCSKPAECLCRPGWQGRLCNECIPHNGCRHGTCSTPWQCTCDEGWGGLFCDQDLNYCTHHSPCKNGATCSNSGQRSYTCTCRPGYTGVDCELELSECDSNPCRNGGSCKDQEDGYHCLCPPGYYGLHCEHSTLSCADSPCFNGGSCRERNQGANYACECPPNFTGSNCEKKVDGSYGPPCPPCPAPEFLGGPSVFLFPPKPKDTLMISRTPEVTCVVVDVSQEDPEVQFNWYVDGVEVHNAKTKPREEQFNSTYRVVSVLTVLHQDWLNGKEYKCKVSNKGLPSSIEKTISKAKGQPREPQVYTLPPSQEEMTKNQVSLTCLVKGFYPSDIAVEWESNGQPENNYKTTPPVLDSDGSFFLYSRLTVDKSRWQEGNVFSCSVMHEALHNHYTQKSLSLSPGK
B2: fusion hDII4-hFc protein with the amino acid sequence of SEQ ID NO: 4 (DSL domain and EGF(1-8) domains of human DII4 fused with the Fc region of human IgG4) (Fc fusion)
chain: YRVICSDNYYGDNCSRLCKKRNDHFGHYVCQPDGNLSCLPGWTGEYCQQPICLSGCHEQNGYCSKPAECLCRPGWQGRLCNECIPHNGCRHGTCSTPWQCTCDEGWGGLFCDQDLNYCTHHSPCKNGATCSNSGQRSYTCTCRPGYTGVDCELELSECDSNPCRNGGSCKDQEDGYHCLCPPGYYGLHCEHSTLSCADSPCFNGGSCRERNQGANYACECPPNFTGSNCEKKVDRCTSNPCANGGQCLNRGPSRMCRCRPGFTGTYCELHVSDCARNPCAHGGTCHDLENGLMCTCPAGFSGRRCEVRTSIDACASSPCFNRATCYTDLSTDTFVCNCPYGFVGSGSYGPPCPPCPAPEFLGGPSVFLFPPKPKDTLMISRTPEVTCVVVDVSQEDPEVQFNWYVDGVEVHNAKTKPREEQFNSTYRVVSVLTVLHQDWLNGKEYKCKVSNKGLPSSIEKTISKAKGQPREPQVYTLPPSQEEMTKNQVSLTCLVKGFYPSDIAVEWESNGQPENNYKTTPPVLDSDGSFFLYSRLTVDKSRWQEGNVFSCSVMHEALHNHYTQKSLSLSPGK

Assays:
[1] = molecular target: recombinant human protein Notch1 (human) (UniProt P46531); test: co-immunoprecipitation with biotinylated Notch on streptavidin beads / SPR (Proteon XPR36) on immobilized biotinylated Notch
[2] = molecular target: recombinant human protein Notch4 (human) (UniProt Q99466); test: as above

Binder | binding [1] | binding [2]
B1 | binds | binds
B2 | binds | binds
